Source: PMC10434240

Chains of the proteins cited; added tags and fusions are not shown.
UniProt P90623: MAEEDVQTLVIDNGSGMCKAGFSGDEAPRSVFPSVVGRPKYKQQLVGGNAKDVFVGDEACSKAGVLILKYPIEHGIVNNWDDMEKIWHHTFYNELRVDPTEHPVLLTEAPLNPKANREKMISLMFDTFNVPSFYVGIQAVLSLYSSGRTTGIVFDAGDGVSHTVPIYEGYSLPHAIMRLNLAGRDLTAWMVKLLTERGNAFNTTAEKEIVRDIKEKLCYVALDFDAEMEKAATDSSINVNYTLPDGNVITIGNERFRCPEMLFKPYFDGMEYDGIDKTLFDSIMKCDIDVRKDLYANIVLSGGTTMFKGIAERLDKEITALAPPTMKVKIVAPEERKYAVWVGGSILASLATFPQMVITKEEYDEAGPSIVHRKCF

Target: HA-TvActin (Trichomonas vaginalis) (UniProt P90623)
Experiment: affinity purification with mass spectrometry; HA-TvActin immunoprecipitated with anti-HA agarose beads from lysate of transgenic TH17 trophozoites (1% Triton X-100, 5 mM EDTA in TBS, 4°C overnight); SDS-PAGE, LC-MS/MS, label-free emPAI

| Binder | binding |
| --- | --- |
| T-complex protein 1 subunit delta (protein, UniProt A2DS85 1-536) MSQQSAPAASATNPPAFQGQDRPTDVRMSCILAAKSVADAVRSSLGPRGMDKLIQEKNGEVIITNDGATILKHMGAAHPAAKLMVSMSQAQDVAAGDGTTSVVIFAGAFLSACKTLLERKLHPSLVSDALRIATDEAIKILDQMRIPFGQGEAFTEQEREILIDSARTSLSSKLASQWSDILAPLAVDAVLRVHDGKHVDLNDIRVVQRVGGVIDDSELVDGVVFPHHFQRQSGDARKINNAKIALIQFQISPPKTDMESQVILNDYAQMDRVQREQRKYILNIVNAIAKTGANVILLQKSVLRDAISDTALHFLNKKGIIVVKDIDREEVDFVCRTIGCQPIASVEGLSADKLGFAETVEEVTTAGGAIIKIMGLKKVSKTVTVLLRGSNELIIGEAERSLHDALCVIRSLVYERYLLPGGGAPEVELAIKLAKKADEIGGEIGHCIRAFADSLDIVPYTLAENAGLAPLDVVTQLREAHSSGKMYYGVSVVACGPADMKEEEVLQPYLVTKSAVTFASETVRMILKVDDILATR | binds |
| Glyceraldehyde-3-phosphate dehydrogenase (enzyme, UniProt A2EM29 1-361) MVVKVAINGFGRIGRLVFRACRKLYPKDIKVVAIHDLGDIKTNVYLLKYDTAHRAFPEPVTVDEVKQEFTVGEGADKWVVKSIGGRLGPSQLPWKELGIDVVLESTGIFRTKAQKDAEGKITKDGYDGHLVSGAKKVVLSVPSADEIECTLVLGVNDEDLKPETRCISNASCTTNCLGPVAKTLNNAFGIRNGFMTTVHSYTNDQVVADTMHKDLRRARAAGMNIIPTSTGAAIALPKVCHGLPPKSLDGFALRVPTITGSLVDLTVNVNAKVTKEEVNAALKKATEEGSLKGIMTYVTDPIVSSDIIGCQYSSIVDALSTKVLPNPEGQGTLVKVLSWYDNEWMYSCRCADIFHRLEKYL | binds |
| T. vaginalis F-actin capping protein subunit α (TvFACPα), endogenous (protein, UniProt A2FE30 1-261) MSESENIKIIKTFLANAPPGEYEQCTAALRSIVNDEDLINRARSETLKTWAEEECIVVDVEDHKVIICKEACQRDGIYVDPVTSSLITYDFESRIATPIGDQANMSDFAKELQEELTAYAKNAYKENAAAGVYDTNNGIVIVLRGSSISLKNFRTGKTVAKYTLSKSGSLEGKIVSIQHFFEKGNAVCQHDGDCNTTCSFGDAKSVVKAIRTFEDEWLADYKTTLEKIGTNVLFQLRRKFPYSKQKINWQQEITVGGGMKC | binds |
| 6-Phosphofructokinase (TVAG_496160) (enzyme, UniProt A2FR66 1-324) MKNIAILSSGSDNSGINSAIRAVVRSARHAKVHVYGVNYGYIGLRDDSMKIITSRDVSGQMGKAGCFLGTGRPENLFDDDASFKKMLSNIEKKKIEGLVVIGGYTSLTQSKKFVDAGIPTVAIPSTIQDDIVGTDICLGVDSAVNNIVKNVERIRSCESTMDRTFLIRCEGETCGSLALRAGLVSGADLILTPEQECKDINVIVDKLQKVYQSGKTQCICLISRGWKPGCEALAEYLSKHENETDLSVRETIFGYVQRGGAPTGFDRLMGTNMGALAFQTLTSGQTAKMTALSDGQYTIVPYEAFLDQQKKLDPKMLELFDLTK | binds |
| Pyrophosphate-fructose 6-phosphate 1-phosphotransferase 2 (enzyme, UniProt A2E9H3 1-426) MSTEAPVLGILCGGGPAPGLNGVIAGATLYALRLGWKVIGFMEGFKYLCTGDIETVKAHTIDLTYDIVSRIHFQGGTIIQTSRANPRKSTELQENVRKCLRALKVRYFLTIGGDDTASSAVSVAQGMDGNEISVISCPKTIDNDLPLPADQSTFGFHTARSLGMEIIRNLMVDSKSAPRWFLVEAMGRSAGHLALGMAEASGAHLCLIPEEFKQDEIEFEDVVELVEATILKRLAYGKNYGVCVLAEGLVSKMSKKALYRLFGNREPPTDPHGHILLDDAELARSLSEELLKRLGNLGIRITPKKIGYELRCADPVAFDAVYTRELGYGAIDAFLNGHSAALIVRENGQVKPVQFKDLLDPATGRVRTRLVDVTSQSFKVARVYMWRMSKKDYENKDLVARVAAAGKMTPEAFTEKFAHLTDVVIE | binds |
| Succinate-CoA ligase (ADP-forming) subunit β, mitochondrial (TVAG_144730) (enzyme, UniProt A2FVK7 1-409) MLSNGSFARNFNILEWQSKEICAKFNVAAGINLVARTPEEAAAAFKKMGLPAAVIKAQVYCGGRGKGHWKETGFKSGVHFVKSADEAAKIAKEMLGHHLVTKQTGADGLLCQAVMLSDPVEVKRELYFAILLDRQTQSPVVIASTEGGVEIEEVAAKHPEKILKFQLDGVEGITRDVAVNISKQLGLTGKAYENGIEEMQKLWKLFVGSDATQVEVNPLAETTDGRIITVDSKFNFDDSAHYRQKQIFGYRDLKQVNPFEIRAEKYGLNYVPLDGNVACLVNGAGLAMATMDVIKLAGGDPANFLDLGGGASEAAVTEGFTIISSQSHVKAILVNIFGGIVRCDMVAAGVIAAFKKVGLKVPLVVRLEGTNVDAGKKLIRESGLPIIPADNLTDAGIKAVKAANGEKLI | binds |
| α-1,4-Glucan phosphorylase (enzyme, UniProt A2DSX4 1-944) MSKQAQKLHPTIRPFYPDAKPIPTEAKNASLNTLSHKVQESQGEDLEQARHNLLWKLMGEYIPAEKDSVQLSFVNHMEYTLARSRFNLDAFSSYLAVSYSVRDRLIELFNDTQEYFISSKAKQVYYVSAEFLVGRFLRNALLNLELEDLYRKSLAELDVSLDQIYNEEYDPGLGNGGLGRLAACFMDSLATLNLPGWGYGLMYSFGMFKQIIGADGSQLEIPDYWLNFGDPWRIQKPTVCHQVHFYGRCENGVWKPSLTINAVANDFLIPGFGTDNTLALRLWSSKPTVELDEEKFRGGDYFQAITMKQRCENLTSVLYPNDNTYEGKEMRLMQEYFMSSASLQDIIRRLKTHQKQDIRQLPKYAAIQLNDTHPTVMVAECLRILMDEEDMGLLEALEITRKVFSYTCHTLMPEALEKWDVPMFQNMLPRHLEIIYQLNQYYLDDVRAKYHVTDDVIRNLSIIEESNPKKVRMANLAVIGSHMVNGVAAIHSELMKIYVFKDFAQLEPKKFINKTNGVTIRRWLHHCNPGLSQIINRVVGDEKWALNAEGLTALTKKQDDPNFIAEWEAVKLANKQHLAELVKKTTGVELNPEKQLFDIQVKRIHEYKRQQLNIFSIIYRYLNILEMTPAERAKLVPRAMIFGGKAAPGYYAAKKLIKLINNVAKVVNADKNIGDLLKVVYIPNYNVSAAEIIIPGTDVCEQISTAGTEASGTSNMKFAFNGGLIIGTHDGANIEIGDAIGNENVFFFGEVAENVDTYRAAAEHPIPAGLRRVFDTIRTGLFGDVNEYECLIYPVEHGDNYLVAKDFEDYLDAQRRCDEAYKNKEEWTKMSIASTANMARFSSDRTITEYANEVWGIHECKLPVVEPIEASGVQQMGVGSIGGSLRRHQSAAFAEQAPSSNGPTLSKGTYGSLSRKSQIPVPAAQPVQDSKNDDHDGEIEIDYN | binds |
| Succinate-CoA ligase (ADP-forming) subunit β, mitochondrial (TVAG_259190) (enzyme, UniProt A2EBX0 1-407) MLSSSFARNFNILEWQSKEICAKYNVAAGINLVARSPEEAAEAFRKMNLPAAVIKAQVYCGGRGKGHWLETGFKSGVHFVKSADEAAKIAKEMLGHHLVTKQTGKDGLLCQAVMLSDPVEVKRELYFAILLDRQTQSPVVIASTEGGVEIEEVAAHHPEKIHKFVLDGVEGITEEVAKNISTKLGLTGKAYDNGVVEMQKLWKLFVGSDATQVEVNPLAETTDGRIITVDSKFNFDDSAHYRQKQIFGYRDLKQVSPFEIRAEKYGLNYVPLDGNVACLVNGAGLAMATMDVIKLAGGDPANFLDLGGAASEAAVTEGFTIISQQSHVKAILVNIFGGIVRCDMVAAGVIAAFKKVGLKVPLVVRLEGTNVEAGKKLIRESGLPIISADNLTDAGEKAVKAAKGEKF | binds |
| 6-Phosphofructokinase (TVAG_293770) (enzyme, UniProt A2FKA7 1-326) MSLKNIAVLTSGGDNAGLNAAVRAITRVGIARNVNVYGVLRGYRGLVEGQIFELNSRAVSGKMGLGGTFIGTARLPEWKDPKVRREAIRNMNRHDIGGLIVIGGNGSLSGASLLAKDGFPVIGMPGSIDDDVMGTEVCVGVDTALNIIIEAIDRIRDCASSIQRAFVIEVMGRDSGALALMSAAATGAEVCLVPEIPSPPMEKIADAITNAYTKGKPYAIIVVAEGWKPGINKLVEFLNSKQDETGFDVRTTVLGYTQRGGSPSYIDRYYGTAMGAFAVDSLLAGETNKFVAVQNGKPCLQPLDTLVGKLKPLNKNLLDLYNKLDN | binds |
| α-Actinin, putative (protein, UniProt A2DKH3 1-931) MSVRREGLLDDAWEKTQIKVFSRWVQKQLLARQIQFETIETDFEDGTKLLNLLEIIGKEPMPSKWHKQPKMMVQKRENVDLALKYINEVKKIRTVGIGADDIINKNLKLTLGLTWTCINKFMIEEISVEEATARDALLLWAKKNTQGYEHVAVNNFTTSWNTGLAFAALINKFRPNLLDYSALDYNDHKGACEKAFAACKELGIYVYLDPEDVIDTTPDEKSVVTQVAEFFHFFASESKIAAMADKIKRTVAIQKQIDELKNTYIEDAKAAIEKMTVEDEKLKADDYEKTIPGIRGKLASVISYNRDIRPEIVDHRAKAMRSWAALVTKCKSGNRPIPEIPQGLEPEALTNKFNEIEQTSTTRRDELTQELNDMIKKKVEDFMAKCMDIINKCDAIHEEVKTIEGTTAEKKDKVEQKLHEAEDLQPALAELTPLFQELVELRINTLSSQTDDSVNRHHSQLITYIKHLLEQLNGKLFEETNEARINEYNALAQPLYDEAIAFKEEVLAISGELRERRTQFLAKQAEAPTKREHVNEIDPIFDGLEKDSLHLRVNHSPTEIRNVYAVTLQHIITELNKIFEEMVANFDATAVPIIDGITALVTSSHQIPGDAAAVKAQVEENLASLDGFAEKIQALQDPYNELVEFKLNYKVTYTYSDATGELDQARLDLKQIILAKKTFLEEEERKARINNYTVKADEHMNEAHALDGKINSVDGELEPKRQKLYEVREEVNAKKEKAAEELTPIYEDLEKDQLHLEITSTPASINIFFENLIAHIDTLVKEIDAAIAAAKGLEISEEELNEFKDTFKYFDKDKSNSLEYFELKACLTALGEDITDDQAKEYCKKYNSKGEGTALEFDDYVRFMLDHFSKAETTETTMEAFKAIAQNQPVLTDAQLDQYFSAEDAAYLRSQLKQGENGYEFADWVNSLYNQ | binds |
| 6-Phosphofructokinase (TVAG_462920) (enzyme, UniProt A2DM03 1-324) MKSIGILTSGGDSAGLNAIVRSATRYGIEKGLKVYGINRGYLGLVDGKIFELNSRSVSGKLGLGGTFIGTARLPSWKEPKVRREAIRTLNRFSIDGLIVVGGNGSLAGANLLQKDGFPVIGLPGSIDDDVYGTDVCIGVDTALNIIIEAIERIRDCASSIQRAFVVEVMGRDSGALALMAAAAAGAEVCLVPEGKNPSMEEIAKTITQAYTRGKPHAIIVVAEGWKPGTKALIDYLKSIEDQTGFDVRTTVLGYTQRGGAPSYRDRYYGTIMGMAAVDALLAGESGKMVGIKDEKVNLVPFEDLVGKLKPLNEDLYKLYKQLEQ | binds |
| Malic enzyme (enzyme, UniProt A2EAJ8 1-398) MSVKKDYASLSVAAHKEWRGKIETVARCKVEDKDDLSIAYSPGVAQPCLEIQKNPALSYELTRRWNTVAVITDGTAVLGLGDIGPEAGMPVMEGKALLFKRFGDVDAIPLCVRSKNVDDIVKVVSLIAGSFGGVNLEDISAPRCFEIEKKCQEICDIPIFHDDQHGTAIVTLAALLNALKLVGKKIEDVKIVTSGAGAAGIAIIKLLVAVGVNPKNVILTDRQGAIYKGRSGLNDIKVEMAEITNSELKQGTLGDVIKGVDVFIGVSAPKTLTQEMVKSMAEKPIVFAMANPIPEIMPEEAKEAGAIVVGTGRSDYPNQINNVLAFPALFRGALDVRSSRITNEMNIAAARAIASLVSDAELTPEYILPKPFDPRIKETVSKAVAAAAIKSGVARIQQ | binds |

These are yes or no findings as the source states them, for the method shown. In cells and extracts the contact can be indirect. A yes stands for co-enrichment or nearness to the bait. Other partners may have been found. Sequences can lack the tags named with a protein.
